Reference: patent EP1693456A1
Results are given in words; binding and its absence hold for the method and conditions named. A result given as binding can be weak or reduced; the word gives no strength.

Target: SYNE-1 (UniProt Q8NF91)
Experiment: yeast two hybrid screen of cDNA libraries

B1: bait designed in the C-terminal region of the hBAI2 gene product (without insertion of the amino acid residue) (protein, human, UniProt O60241-2 1175-1584, looked up)
chain: MTDRRSVLFQALFAVFNSAQGFVITAVHCFLRREVQDVVKCQMGVCRADESEDSPDSCKNGQLQILSDFEKDVDLACQTVLFKEVNTCNPSTITGTLSRLSLDEDEEPKSCLVGPEGSLSFSPLPGNILVPMAASPGLGEPPPPQEANPVYMCGEGGLRQLDLTWLRPTEPGSEGDYMVLPRRTLSLQPGGGGGGGEDAPRARPEGTPRRAAKTVAHTEGYPSFLSVDHSGLGLGPAYGSLQNPYGMTFQPPPPTPSARQVPEPGERSRTMPRTVPGSTMKMGSLERKKLRYSDLDFEVMHTRKRHSELYHELNQKFHTFDRYRSQSTAKREKRWSVSSGGAAERSVCTDKPSPGERPSLSQHRRHQSWSTFKSMTLGSLPPKPRERLTLHRAAAWEPTEPPDGDFQTEV
binding: binds
